Assay results taken from paper PMC3280289.
These are yes or no findings as the source states them, for the method shown. Binding can be weak; no strength is given. Tags and fused reporters may be left off the sequences shown.

Assays:
Assay in all cases: far-Western, overlay or dot blot; T7-tagged N-terminus of Xirp1 (residues 1-58) overlaid on blotted EEF-tagged EVH1 domains
[1] = target: EEF-tagged EVH1 domain of zebrafish VaspII (zebrafish)
[2] = target: EEF-tagged EVH1 domain of zebrafish VaspI (zebrafish)
[3] = target: EEF-tagged EVH1 domain of zebrafish Enah (zebrafish)

Measured: binding

B1: T7-tagged N-terminus of zebrafish Xirp1 (residues 1-58) containing proline-rich repeat1 (PR1) (domain or fragment, UniProt Q5PZ43 1-58)
chain: MAEVAKQKKATEAVCGDEDFPPPPPPLPRPQVLESLQKDLSQNFLPVPPPKETFSEIY
binds: [1] | [2] | [3]
